Test results from PMC9103030.

How the values were obtained:
Test in all cases: two-hybrid; each of 13 full-length OsJAZs as BD (bait, left column) and AD (prey, top row) fusion; yeast Y2HGold; growth on SD/-Leu/-Trp/-His/-Ade; graded strong (++), weak (+), undetectable (-)
OsJAZ1 (rice) = molecular target: T1, OsJAZ1 (rice) (UniProt Q7XPM8)
T1 sequence: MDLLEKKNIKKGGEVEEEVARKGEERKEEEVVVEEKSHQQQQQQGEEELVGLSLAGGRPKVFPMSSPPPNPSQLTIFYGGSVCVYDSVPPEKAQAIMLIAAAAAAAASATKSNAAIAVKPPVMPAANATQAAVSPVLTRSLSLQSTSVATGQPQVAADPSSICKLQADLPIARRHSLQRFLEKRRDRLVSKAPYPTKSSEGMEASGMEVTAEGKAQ

OsJAZ12 (rice) = molecular target: T2, OsJAZ12 (rice) (UniProt Q7XEZ1)
T2 sequence: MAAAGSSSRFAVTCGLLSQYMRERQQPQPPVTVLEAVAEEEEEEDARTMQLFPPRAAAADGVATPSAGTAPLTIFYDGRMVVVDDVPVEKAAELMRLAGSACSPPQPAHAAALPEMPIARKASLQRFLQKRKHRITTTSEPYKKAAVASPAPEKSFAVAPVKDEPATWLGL

OsJAZ7 (rice) = molecular target: T3, OsJAZ7 (rice) (UniProt Q8H395)
T3 sequence: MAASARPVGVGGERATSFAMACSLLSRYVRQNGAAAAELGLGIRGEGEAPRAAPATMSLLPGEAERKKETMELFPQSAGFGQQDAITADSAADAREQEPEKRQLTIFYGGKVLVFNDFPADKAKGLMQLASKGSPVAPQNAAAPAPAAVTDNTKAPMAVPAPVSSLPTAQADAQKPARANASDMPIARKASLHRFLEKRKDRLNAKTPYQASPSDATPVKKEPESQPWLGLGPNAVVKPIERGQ

OsJAZ8 (rice) = molecular target: T4, OsJAZ8 (rice) (UniProt Q69P94)
T4 sequence: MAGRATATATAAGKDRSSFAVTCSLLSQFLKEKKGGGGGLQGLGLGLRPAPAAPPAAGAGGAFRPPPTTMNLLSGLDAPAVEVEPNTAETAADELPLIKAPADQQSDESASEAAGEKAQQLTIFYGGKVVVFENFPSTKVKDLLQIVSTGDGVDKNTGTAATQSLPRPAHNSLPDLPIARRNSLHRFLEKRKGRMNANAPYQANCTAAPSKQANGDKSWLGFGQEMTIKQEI

OsJAZ3 (rice) = molecular target: T5, OsJAZ3 (rice) (UniProt Q6ZJU3)
T5 sequence: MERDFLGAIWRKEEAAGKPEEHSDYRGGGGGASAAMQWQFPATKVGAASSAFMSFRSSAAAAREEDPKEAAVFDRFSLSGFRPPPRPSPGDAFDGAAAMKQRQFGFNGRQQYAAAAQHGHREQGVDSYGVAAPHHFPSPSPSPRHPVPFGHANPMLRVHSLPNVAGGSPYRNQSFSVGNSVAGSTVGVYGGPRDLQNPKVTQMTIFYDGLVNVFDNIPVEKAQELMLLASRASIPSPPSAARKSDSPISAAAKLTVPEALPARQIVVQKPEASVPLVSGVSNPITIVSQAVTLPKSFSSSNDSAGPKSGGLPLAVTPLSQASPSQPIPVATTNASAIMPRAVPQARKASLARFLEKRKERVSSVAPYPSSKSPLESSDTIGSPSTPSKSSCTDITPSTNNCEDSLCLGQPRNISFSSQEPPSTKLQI

OsJAZ4 (rice) = molecular target: T6, OsJAZ4 (rice) (UniProt Q6ES51)
T6 sequence: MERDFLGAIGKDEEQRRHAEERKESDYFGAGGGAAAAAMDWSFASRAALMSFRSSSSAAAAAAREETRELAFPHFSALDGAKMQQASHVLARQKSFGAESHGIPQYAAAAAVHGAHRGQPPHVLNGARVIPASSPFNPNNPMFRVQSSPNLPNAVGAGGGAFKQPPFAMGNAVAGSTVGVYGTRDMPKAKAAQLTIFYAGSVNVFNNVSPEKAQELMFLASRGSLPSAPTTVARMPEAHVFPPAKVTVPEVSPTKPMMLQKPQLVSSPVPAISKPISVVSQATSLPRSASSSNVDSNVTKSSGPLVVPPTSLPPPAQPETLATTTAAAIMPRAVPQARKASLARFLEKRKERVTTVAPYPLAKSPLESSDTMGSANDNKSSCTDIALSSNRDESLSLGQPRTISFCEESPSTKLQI

OsJAZ6 (rice) = molecular target: T7, OsJAZ6 (rice) (UniProt Q84R94)
T7 sequence: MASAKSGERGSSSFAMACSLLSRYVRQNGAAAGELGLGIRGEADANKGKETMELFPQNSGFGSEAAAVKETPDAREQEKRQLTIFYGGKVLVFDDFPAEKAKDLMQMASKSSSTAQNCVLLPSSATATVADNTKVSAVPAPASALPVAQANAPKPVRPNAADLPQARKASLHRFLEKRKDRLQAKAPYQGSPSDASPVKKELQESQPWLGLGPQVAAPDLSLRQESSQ

OsJAZ9 (rice) = molecular target: T8, OsJAZ9 (rice) (UniProt Q8GSI0)
T8 sequence: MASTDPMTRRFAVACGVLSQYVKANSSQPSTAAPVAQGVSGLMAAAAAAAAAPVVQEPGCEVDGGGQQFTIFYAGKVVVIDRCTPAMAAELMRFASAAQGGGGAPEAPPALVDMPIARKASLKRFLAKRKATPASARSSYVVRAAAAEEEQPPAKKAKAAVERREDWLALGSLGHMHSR

OsJAZ5 (rice) = molecular target: T9, OsJAZ5 (rice) (UniProt Q7XV97)
T9 sequence: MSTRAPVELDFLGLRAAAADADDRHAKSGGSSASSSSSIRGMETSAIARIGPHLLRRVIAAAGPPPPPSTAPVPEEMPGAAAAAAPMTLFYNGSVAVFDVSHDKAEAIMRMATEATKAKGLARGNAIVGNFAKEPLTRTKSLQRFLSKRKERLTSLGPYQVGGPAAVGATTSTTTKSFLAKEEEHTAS

binding (OsJAZ1 (rice)) | binding (OsJAZ12 (rice)) | binding (OsJAZ7 (rice)) | binding (OsJAZ8 (rice)) | binding (OsJAZ3 (rice)) | binding (OsJAZ4 (rice)) | binding (OsJAZ6 (rice)) | binding (OsJAZ9 (rice)) | binding (OsJAZ5 (rice)) | Substance
no binding | binds | binds weakly | no binding | – | – | – | – | – | OsJAZ4-2 (rice)
binds | – | binds | no binding | binds | binds | binds | – | – | OsJAZ10 (rice)
binds | no binding | binds | no binding | no binding | binds | binds | no binding | – | OsJAZ11 (rice)
no binding | no binding | – | – | – | – | no binding | no binding | no binding | OsJAZ13 (rice)

Results are given in words; binding and its absence hold for the method and conditions named. For some assays here: Binding can be weak; no strength is given.
